According to publication PMC4635213:

Target: histone H2A from Brassica oleracea (Brassica oleracea)
Test: far-Western, overlay or dot blot; purified B. oleracea histones separated on 15% SDS-PAGE and transferred to PVDF; membrane incubated with AtFib2 (0.5 ug) in 20 mM Tris pH 7.6, 100 mM NaCl, 0.5 mM EDTA, 10% glycerol, 0.1% tween-20, 2% non-fat milk, 1 mM DTT at 25 C for 4 h; detected with anti-fibrillarin; H2A band verified by anti-H2A after stripping; both purified

binding: binds
B1: Arabidopsis thaliana fibrillarin 2 (enzyme, UniProt Q94AH9 1-320)
chain: MRPPLTGSGGGFSGGRGRGGYSGGRGDGGFSGGRGGGGRGGGRGFSDRGGRGRGRGPPRGGARGGRGPAGRGGMKGGSKVIVEPHRHAGVFIAKGKEDALVTKNLVPGEAVYNEKRISVQNEDGTKTEYRVWNPFRSKLAAAILGGVDNIWIKPGAKVLYLGAASGTTVSHVSDLVGPEGCVYAVEFSHRSGRDLVNMAKKRTNVIPIIEDARHPAKYRMLVGMVDVIFSDVAQPDQARILALNASYFLKSGGHFVISIKANCIDSTVPAEAVFQTEVKKLQQEQFKPAEQVTLEPFERDHACVVGGYRMPKKPKAATAA

Results are given in words; binding and its absence hold for the method and conditions named. Binding can be weak; no strength is given.
